The values that follow come from publication PMC6189217.

Amino acid sequences for entries named in this document (tags omitted). A change or cut given only in a name is not applied to a line headed by its entry.
UniProt Q14258: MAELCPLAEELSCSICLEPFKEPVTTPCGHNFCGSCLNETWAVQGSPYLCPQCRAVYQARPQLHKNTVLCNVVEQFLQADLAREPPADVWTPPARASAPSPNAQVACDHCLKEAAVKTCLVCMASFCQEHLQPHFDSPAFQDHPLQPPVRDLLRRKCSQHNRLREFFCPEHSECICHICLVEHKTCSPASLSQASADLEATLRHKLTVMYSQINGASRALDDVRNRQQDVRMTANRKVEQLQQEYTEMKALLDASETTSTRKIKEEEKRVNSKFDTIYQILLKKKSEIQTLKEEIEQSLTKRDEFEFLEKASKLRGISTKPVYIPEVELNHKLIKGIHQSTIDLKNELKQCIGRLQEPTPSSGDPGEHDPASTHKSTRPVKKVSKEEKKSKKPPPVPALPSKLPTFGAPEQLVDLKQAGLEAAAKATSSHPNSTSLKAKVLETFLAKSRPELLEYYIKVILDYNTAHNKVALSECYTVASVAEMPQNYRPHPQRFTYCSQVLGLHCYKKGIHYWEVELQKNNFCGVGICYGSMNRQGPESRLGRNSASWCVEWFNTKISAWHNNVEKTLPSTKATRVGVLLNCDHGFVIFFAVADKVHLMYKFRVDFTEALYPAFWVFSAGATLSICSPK

Results are given in words; binding and its absence hold for the method and conditions named. Binding seen in cells or lysates may run through a third protein. Some binding calls cover weakened binding; strength is not graded here.

The target of assay [1] is HA-tagged TRIM25^CS (C50S/C53S), E3 ligase-defective mutant, expressed in HEK-293 cells (human) (UniProt Q14258). In words: co-IP; HEK-293 cells expressing PPARγ, TRIM25 or their mutants; total cell lysates incubated with anti-HA antibody at 4 °C; western blotting. For orientation: A western blot detects proteins with antibodies after separation by electrophoresis.
Assay [2] addresses HA-tagged TRIM25^WT expressed in HEK-293 cells (human) (UniProt Q14258). The assay is described as above.
For assay [3], the target named is T1, PPARγ, endogenous in 3T3-L1 adipocytes (mouse (endogenous in 3T3-L1)), P37238.
T1 chain: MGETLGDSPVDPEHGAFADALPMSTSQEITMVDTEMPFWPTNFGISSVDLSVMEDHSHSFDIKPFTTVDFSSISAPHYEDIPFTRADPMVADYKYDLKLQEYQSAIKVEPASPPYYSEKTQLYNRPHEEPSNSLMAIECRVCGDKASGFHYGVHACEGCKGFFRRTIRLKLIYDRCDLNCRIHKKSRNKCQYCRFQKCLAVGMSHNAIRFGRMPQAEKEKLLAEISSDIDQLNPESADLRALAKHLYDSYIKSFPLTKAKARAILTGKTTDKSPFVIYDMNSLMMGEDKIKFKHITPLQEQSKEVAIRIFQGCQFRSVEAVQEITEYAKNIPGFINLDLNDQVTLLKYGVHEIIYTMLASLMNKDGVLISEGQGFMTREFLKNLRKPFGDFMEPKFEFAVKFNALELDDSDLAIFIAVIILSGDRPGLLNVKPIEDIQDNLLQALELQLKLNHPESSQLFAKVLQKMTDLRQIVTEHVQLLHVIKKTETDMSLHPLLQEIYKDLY
The experiment in a line: co-IP; endogenous proteins; 3T3-L1 adipocytes lysed with binding buffer, lysates incubated with anti-PPARγ or TRIM25 antibodies, western blotting. To be noted: remark: other sources report otherwise.

Turning to “PPARγ expressed in HEK-293 cells (FLAG-epitope tagged WT PPARγ vector) (from UniProt P37238 1-505)”, the binding entry in assay [1] and in assay [2] was “binds” in each case.

B1: TRIM25, endogenous in 3T3-L1 adipocytes, Q61510 1-634 (protein)
chain: MAELNPLAEELSCSVCLELFKEPVTTPCGHNFCMSCLDETWVVQGPPYRCPQCRKVYQVRPQLQKNTVMCAVVEQFLQAEQARTPVDDWTPPARFSASSAATQVACDHCLTEIAVKTCLVCMASFCQEHLRPHFDSPAFQDHPLQSPIRDLLRRKCTQHNRLRELFCPEHGECICHICLVEHKTCSPTTLSQASADLEYKLRNKLTIMHSHINGATKALEDVRSKQQCVQDSMKRKMEQLRQEYMEMKAVIDAAETSSLRKLKEEEKRVYGKFDTIYQVLVKKKSEMQKLKAEVELIMDKGDEFEFLEKAAKLQGESTKPVYIPKIDLDHDLIMGIYQGAADLKSELKHSIKKLQKKSEEHNGSGNKGDQTQSTFKPVQPSKKTIQEKKTKKTPVAPGPPSHFSPNKLPTFGAPGQSLDSKATSPDAAPKASAAQPDSVGVKAKVLENFLTKSRTELLEYFVKVIFDYNTAHNKVSLSNKYTTASVSDGLQHYRSHPQRFTYCSQVLGLHCYKNGIHYWEVELQKNNFCGVGICYGSMERQGPESRLGRNPNSWCVEWFNNKISAWHNNVEKTLPSTKATRVGVLLNCDHGFVIFFAVTEKVHLMYKFKVDFTEALYPAFWVFSAGTTLSICSK
For the molecule B1, the binding result in assay [3] is reported as “binds”.
